According to article PMC11623267, “Inhibitors of malaria parasite cyclic nucleotide phosphodiesterases block asexual blood-stage development and mosquito transmission” (Science Advances, 2024):
For some assays here: The index is printed as in the source, without its formula.

Key:
[1] = tested on: P. falciparum clinical isolates from Tororo and Busia Districts of Uganda; assay: Ex vivo 72-hour SYBR Green assay, Ugandan clinical isolates; type: cell-based, Plasmodium falciparum; conditions: curve fits
Excerpt: Clinical isolates were from the Tororo District of Uganda, located in the central-eastern part of the county near the Kenya border. Tororo and surrounding areas have high-intensity, year-round malaria transmission. […] Patients reporting use of antimalarial treatment within the previous 30 days or with evidence of an infection with other Plasmodium species were excluded. Informed consent was obtained from patients and/or primary care givers (depending on age); children aged 8 to 17 years provided assent. Two to 5 ml of blood was collected by venipuncture in a heparin tube. […]
Samples were delivered to the adjacent IDRC laboratory at Tororo District Hospital or transported by car from Masafu Hospital on the day of collection for storage of blood spots on filter paper (for isolation of nucleic acids) and initiation of ex vivo culture of malaria parasites. […] Fluorescence was quantified using a BMG Fluostar Optima plate reader at an excitation of 485 nm and an emission of 530 nm, and data were plotted using GraphPad Prism 7. […] For each isolate, a Z′ factor to assess assay quality was calculated from positive controls (eight drug-free wells) and negative controls (eight parasite-free, red cell control wells). […]

HepG2 cells = assay: HepG2 cytotoxicity; type: cell-based; conditions: value in brackets after HepG2 EC50
Excerpt: Table 1. Key activity data for the three main chemical subseries against ABS parasites, parasite fractions, and HepG2 cells. ND, not determined; ×/÷ is the geometric mean with geometric SD. | column: HepG2 EC50 (nM) (selectivity index)

SMILES | H.S. (mean Hill slope) [1] | HepG2 selectivity index (HepG2 cells)
CCc1nc(N)nc(N)c1-c1ccc(Cl)cc1 [Pyrimethamine, reference compound] | 2.02 | –
CNC(=O)c1cnc(OCC(C)C)c(-c2nc3c(C(C)C)n[nH]c3c(=O)[nH]2)c1 [SAL-0010301] | – | 277
CCc1c2nc(-c3cc(C(=O)NC)cnc3OCC(C)C)[nH]c(=O)c2nn1CCOC [SAL-0010031] | – | 143
CCN(CC)CCCC(C)Nc1ccnc2cc(Cl)ccc12 (centres unmarked) [Chloroquine] | 4.51 | –
CCNC(=O)c1cnc(OCC(C)C)c(-c2nc3c(C(C)C)n[nH]c3c(=O)[nH]2)c1 [SAL-0010333] | – | 727
